# These are yes or no findings as the source states them, for the method shown. Some results given as binding are weak or reduced against the parent protein; the word gives no strength.
# Protein sequences, listed by entry. Tags and fused reporters are not part of them. Residues count along the entry.
# UniProt P19838, residues 1-433: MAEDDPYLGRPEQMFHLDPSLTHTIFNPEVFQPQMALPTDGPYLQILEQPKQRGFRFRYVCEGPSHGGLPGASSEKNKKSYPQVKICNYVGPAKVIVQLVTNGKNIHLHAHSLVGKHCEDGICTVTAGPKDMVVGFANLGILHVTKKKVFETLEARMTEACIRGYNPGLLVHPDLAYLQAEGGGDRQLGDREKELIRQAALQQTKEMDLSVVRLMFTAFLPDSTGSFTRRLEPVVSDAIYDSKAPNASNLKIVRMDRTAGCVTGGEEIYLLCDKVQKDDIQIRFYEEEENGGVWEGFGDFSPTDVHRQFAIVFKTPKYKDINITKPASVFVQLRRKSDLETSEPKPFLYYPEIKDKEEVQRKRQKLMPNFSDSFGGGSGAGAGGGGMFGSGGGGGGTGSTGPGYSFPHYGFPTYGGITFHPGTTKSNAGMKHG
# UniProt Q04206: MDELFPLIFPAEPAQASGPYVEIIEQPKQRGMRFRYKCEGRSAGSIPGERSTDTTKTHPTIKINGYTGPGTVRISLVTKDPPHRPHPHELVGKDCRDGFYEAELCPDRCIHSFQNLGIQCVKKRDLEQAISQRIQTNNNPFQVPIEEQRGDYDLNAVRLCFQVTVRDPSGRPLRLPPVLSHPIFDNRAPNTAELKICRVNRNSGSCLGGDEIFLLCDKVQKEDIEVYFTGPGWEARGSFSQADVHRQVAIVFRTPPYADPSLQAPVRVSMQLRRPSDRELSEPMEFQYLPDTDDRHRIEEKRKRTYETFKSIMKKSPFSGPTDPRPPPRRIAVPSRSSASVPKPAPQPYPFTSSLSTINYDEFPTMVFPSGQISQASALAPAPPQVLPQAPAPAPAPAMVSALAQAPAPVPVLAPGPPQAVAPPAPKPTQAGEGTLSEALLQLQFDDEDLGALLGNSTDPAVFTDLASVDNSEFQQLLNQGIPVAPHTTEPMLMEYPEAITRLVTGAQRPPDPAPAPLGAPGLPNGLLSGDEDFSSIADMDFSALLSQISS
# Assays:
# [1] = target: FLAG-p50 (NF-κB p50) (UniProt P19838); test: native gel or EMSA; extracts of A293 cells transfected with FLAG-p65 and FLAG-p50 alone or together; 32P-labeled MIR155HG -178 or MHC1 κB-site probe; heterodimer seen as a DNA-bound band of intermediate mobility, supershifted by two p65 antibodies; 30 min at room temperature, 25 mM Tris-HCl pH 7.4, 100 mM KCl; 5% non-denaturing polyacrylamide gel
# [2] = target: NF-κB p50, endogenous in BJAB cells (human (endogenous in BJAB)) (UniProt P19838); test: native gel or EMSA; nuclear extracts of BJAB cells treated with 5 μg/ml LPS for 0 or 60 min; 32P-labeled MIR155HG -178 probe; new DNA-bound band co-migrating with the A293 p50/p65 control and supershifted by p65 antibody
binding [1],binding [2],Substance
binds,–,FLAG-p65 (NF-κB p65) (from UniProt Q04206 1-551)
–,binds,"NF-κB p65, endogenous in BJAB cells (from UniProt Q04206 1-551)"

# — paper PMC3849010
